Measured values published in patent publication US10125116B2, “Compounds and methods for treating mammalian gastrointestinal microbial infections” (Brandeis University, priority 2009, dated 2018).
pEC50: −log10 of the molar value. Some entries share one result that the patent states for a list of compounds. At least one structure is not confirmed: it was looked up by name or label, or the drawing left a doubt.

Columns and labels:
[1] = system: T. gondii-CpIMPDH; test: T. gondii-CpIMPDH fluorescence growth assay; type: cell-based, Toxoplasma gondii
[2] = system: wild-type T. gondii; test: wild-type T. gondii fluorescence growth assay; type: cell-based, Toxoplasma gondii

## C[C@@H](Oc1cccc2c1ccc[n+]2[O-])c1cn(-c2ccc(Cl)cc2)nn1 [A109]
[1]
  selectivity for T. gondii-CpIMPDH parasite over wild-type T. gondii: ≥ 36 fold

## CC(Oc1cc[n+]([O-])c2ccccc12)c1cn(-c2ccc(Cl)c(Cl)c2)nn1 (centres unmarked) [A103]
[1]
  selectivity for T. gondii-CpIMPDH parasite over wild-type T. gondii: ≥ 36 fold
[2]
  pEC50: < 4.70

## C[C@@H](Oc1cccc2ncccc12)c1cn(-c2ccc(Cl)cc2)nn1 [A98]
[2]
  pEC50: > 5.00

## C[C@@H](Oc1cc[n+]([O-])c2ccccc12)c1cn(-c2ccc(Cl)cc2)nn1 [A110]
[1]
  selectivity for T. gondii-CpIMPDH parasite over wild-type T. gondii: ≥ 36 fold
